Structures were worked out from names or drawings and are uncertain.
Biological target: human PHD2 (Homo sapiens (Human), UniProt Q9GZT9)
Assay: Test 2: human PHD2 inhibitory activity, fluorescence polarization assay of HIF-1α peptide proline hydroxylation
Format: biochemical
Settings: 20-min incubation at 30° C.

Sequences of proteins named here, by UniProt entry; tags and fusion partners are left off.
UniProt Q9GZT9, whole entry: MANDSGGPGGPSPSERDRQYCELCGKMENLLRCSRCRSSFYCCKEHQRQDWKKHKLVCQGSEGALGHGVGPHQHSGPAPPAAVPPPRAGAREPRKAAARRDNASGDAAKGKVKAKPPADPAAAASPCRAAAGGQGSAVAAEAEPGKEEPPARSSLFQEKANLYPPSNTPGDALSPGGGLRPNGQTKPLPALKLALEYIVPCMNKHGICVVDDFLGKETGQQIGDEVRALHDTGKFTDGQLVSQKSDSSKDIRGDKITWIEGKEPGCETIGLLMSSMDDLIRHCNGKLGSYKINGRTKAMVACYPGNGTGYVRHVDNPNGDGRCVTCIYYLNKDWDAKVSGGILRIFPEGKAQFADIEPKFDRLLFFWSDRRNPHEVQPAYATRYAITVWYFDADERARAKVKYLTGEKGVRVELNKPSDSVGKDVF

## O=C(O)CNC(=O)C1=C(O)CCN(Cc2ccc(Oc3ccc(Cl)cc3)cc2)C1=O [Ex. 1-265]
  IC50: 52 nM

Reference: US9422240B2, “Partially saturated nitrogen-containing heterocyclic compound” (TAISHO PHARMACEUTICAL CO., LTD, priority 2012, dated 2016)
